Converted amounts (≈) assume the structure as drawn.
Key:
Format in all cases: cell-based
[1] = tested on: Escherichia coli (25,922); assay: Broth microdilution, E. coli
[2] = tested on: Staphylococcus aureus (2592); assay: Broth microdilution, S. aureus
[3] = tested on: Pseudomonas aeruginosa (9027); assay: Broth microdilution, P. aeruginosa
[4] = tested on: HeLa; assay: cells; conditions: Homo sapiens, 24 h, MTS
Procedure: (§1) Human cervical (HeLa), breast (MCF-7), and liver (Hep3B) cancer cell lines were cultured in RPMI-1640 medium (Sigma-Norwich, Norfolk, UK). Then each kind of the tested cells was treated with 10% fetal bovine serum mixed with 1% penicillin/streptomycin antibiotics (BI, Ghaziabad, UP, India), and 1% L-glutamine (Sigma-Norwich, Norfolk, UK). The cancer cells were cultured at 37 °C in a humidified atmosphere with 5% CO2 and then planted in a 96-well plate at 2.6 × 10^4 cells/well. After 2 days, the EO with different concentrations (10, 30, 60, 120, and 500 µg/mL) was applied to the cells for 24 h. According to the manufacturer’s guidelines, cell viability was estimated by the CellTilter 96® Aqueous One Solution Cell Proliferation (MTS) method. In the end, 100 μL of media and 20 μL of MTS solution were added to each well, and the well plates were incubated at 37 °C for 2 h. The absorbance was measured at 490 nm.

[5] = tested on: MCF-7; assay: cells; conditions: Homo sapiens, MCF7; 24 h, MTS
Procedure: as §1

SMILES	MIC [1] [µg/mL]	MIC [2] [µg/mL]	MIC [3] [µg/mL]	IC50 [4] [µg/mL]	IC50 [5] [µg/mL]
O=C(O)c1cn(C2CC2)c2cc(N3CCNCC3)c(F)cc2c1=O [Ciprofloxacin]	0.78 ± 0.01 (≈ 2.35 µM)	0.78 ± 0.01 (≈ 2.35 µM)	3.12 ± 0.31 (≈ 9.42 µM)		
COc1cccc2c1C(=O)c1c(O)c3c(c(O)c1C2=O)C[C@@](O)(C(=O)CO)C[C@@H]3O[C@H]1C[C@H](N)[C@H](O)[C@H](C)O1 [Doxorubicin]				0.84 ± 1.1 (≈ 1.55 µM)	0.37 ± 0.22 (≈ 0.681 µM)

Source: article PMC9457828, “Chemical Markers and Pharmacological Characters of Pelargonium graveolens Essential Oil from Palestine” (Molecules, 2022)
